# For at least one compound, name, drawing or mass did not settle the structure.
# System: Doxorubicin induced cardiac dysfunction
# Assay: Activity of Garcinol against Doxorubicin induced cardiac dysfunction
# Format: in vivo
# Conditions: Garcinol 10, 25 and 50 mg/kg p.o.; Doxorubicin 10 mg/kg i.v.; rats
# Method: Male Wistar rats were pretreated with Garcinol at 10, 25, 50, 100 and 200 mg/kg (p.o.) for 18 days. On day 16, Doxorubicin at a dose of 10 mg/kg (i.v.) was administered intravenously. On day 18, animals were sacrificed. […] Elevated oxidative stress on the heart was also seen from increased lipid peroxidation and decreased glutathione (GSH) concentrations.
compound,measurement,value
C=C(C)[C@@H](CC=C(C)C)C[C@@]12C[C@@H](CC=C(C)C)C(C)(C)[C@@](CC=C(C)C)(C(=O)C(C(=O)c3ccc(O)c(O)c3)=C1O)C2=O [Garcinol],Therapeutic effect (in words),No significant therapeutic effect

# — patent publication US9956301B2, “Complex of garcinol, cyclodextrin and method thereof” (Indus Biotech Private Limited, priority 2010, dated 2018)
